Laboratory results taken from publication PMC5134261.
Results are given in words; binding and its absence hold for the method and conditions named. In cells and extracts the contact can be indirect. Some results given as binding are weak or reduced against the parent protein; the word gives no strength. Where a sequence is shown, tags or fusion partners need not be part of it. Blank lines part the entries; values can stand above or below the molecule they belong to.

By UniProt entry, the sequences of proteins in these tests, tags left out. Residues count along the entry.
UniProt P05106, residues 27-788: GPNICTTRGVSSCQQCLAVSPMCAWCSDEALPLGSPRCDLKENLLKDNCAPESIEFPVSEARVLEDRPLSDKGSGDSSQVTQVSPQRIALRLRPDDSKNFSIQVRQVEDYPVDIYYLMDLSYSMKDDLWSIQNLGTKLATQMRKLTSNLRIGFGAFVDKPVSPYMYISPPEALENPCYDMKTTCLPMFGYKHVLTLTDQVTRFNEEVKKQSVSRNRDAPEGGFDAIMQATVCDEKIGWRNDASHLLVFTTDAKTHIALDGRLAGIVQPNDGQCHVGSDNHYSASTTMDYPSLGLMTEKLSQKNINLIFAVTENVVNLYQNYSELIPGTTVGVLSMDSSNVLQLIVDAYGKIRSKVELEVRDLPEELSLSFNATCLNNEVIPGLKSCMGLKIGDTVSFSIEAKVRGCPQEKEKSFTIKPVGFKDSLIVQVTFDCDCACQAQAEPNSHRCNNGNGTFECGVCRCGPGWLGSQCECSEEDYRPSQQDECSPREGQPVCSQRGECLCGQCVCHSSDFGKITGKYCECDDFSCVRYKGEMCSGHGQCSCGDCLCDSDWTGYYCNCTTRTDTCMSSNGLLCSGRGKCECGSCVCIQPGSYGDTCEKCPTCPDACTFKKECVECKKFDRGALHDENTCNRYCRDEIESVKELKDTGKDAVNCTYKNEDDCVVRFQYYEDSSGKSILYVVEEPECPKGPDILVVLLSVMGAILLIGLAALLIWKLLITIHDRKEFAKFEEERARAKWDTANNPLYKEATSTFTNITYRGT

What was measured:
[1] = target: T1, His-tag recombinant human kallistatin (human) (UniProt P29622); assay: co-IP; NCI-H446 cells treated with kallistatin for 8 h; lysates immunoprecipitated with anti-kallistatin antibody and protein A beads, immunoblot for integrin β3; cells without kallistatin as control; only the target purified
T1 sequence: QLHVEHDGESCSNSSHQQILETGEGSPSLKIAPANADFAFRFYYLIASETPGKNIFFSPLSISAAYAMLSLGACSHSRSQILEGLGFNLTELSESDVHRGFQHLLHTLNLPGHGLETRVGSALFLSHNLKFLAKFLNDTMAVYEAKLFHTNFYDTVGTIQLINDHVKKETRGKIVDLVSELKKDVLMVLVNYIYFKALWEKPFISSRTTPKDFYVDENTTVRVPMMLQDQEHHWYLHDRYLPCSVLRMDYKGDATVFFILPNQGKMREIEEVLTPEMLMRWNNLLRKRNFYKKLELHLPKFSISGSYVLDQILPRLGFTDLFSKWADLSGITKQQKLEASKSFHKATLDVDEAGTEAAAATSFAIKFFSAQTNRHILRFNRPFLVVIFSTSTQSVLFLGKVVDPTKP

[2] = target: T1, His-tag recombinant human kallistatin (human); assay: pull-down; His-kallistatin on Ni-NTA affinity beads incubated with Triton X-100-released membrane proteins (10 mg) of NCI-H446 cells, 16 h at 4 °C; washed with PBS, eluted fractions immunoblotted; empty Ni-NTA beads as control; only the target purified
[3] = target: integrin β3 (human (endogenous in NCI-H446)) (UniProt P05106); assay: co-IP; NCI-H446 cells treated with kallistatin for 8 h; lysates immunoprecipitated with anti-integrin β3 antibody, immunoblot for kallistatin; cells without kallistatin as control; only the binder purified

- binding [1]: binds
- binding [2]: binds
Molecule: integrin β3 (from UniProt P05106 27-788) (receptor)

- binding [3]: binds
B1: His-tag recombinant human kallistatin (protein, UniProt P29622 21-427)
chain: T1 sequence
